{
  "sequences": {"note": "Sequences of proteins named here, by UniProt entry; tags and fusion partners are left off. Residues count along the entry.", "UniProt P25961, residues 27-591": "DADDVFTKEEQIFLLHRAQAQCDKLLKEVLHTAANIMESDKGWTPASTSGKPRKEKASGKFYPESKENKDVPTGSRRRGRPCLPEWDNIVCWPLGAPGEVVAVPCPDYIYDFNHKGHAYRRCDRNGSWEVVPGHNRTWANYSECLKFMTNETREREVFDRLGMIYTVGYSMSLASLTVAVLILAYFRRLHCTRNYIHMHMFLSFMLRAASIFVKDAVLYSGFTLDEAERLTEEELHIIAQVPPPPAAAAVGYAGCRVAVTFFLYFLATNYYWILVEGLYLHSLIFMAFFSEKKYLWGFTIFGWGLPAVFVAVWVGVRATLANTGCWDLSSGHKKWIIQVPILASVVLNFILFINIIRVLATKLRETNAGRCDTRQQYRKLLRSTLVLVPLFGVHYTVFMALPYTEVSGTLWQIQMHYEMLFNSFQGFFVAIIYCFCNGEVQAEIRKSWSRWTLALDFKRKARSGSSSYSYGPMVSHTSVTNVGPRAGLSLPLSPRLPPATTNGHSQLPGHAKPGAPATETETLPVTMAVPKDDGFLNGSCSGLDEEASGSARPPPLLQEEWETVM"},
  "source": "patent US6500647",
  "about": "(MOGAM BIOTECHNOLOGY RESEARCH INSTITUTE, dated 2002)",
  "binders": {"B1": {"name": "human recombinant PTH (rhPTH (1-84)) (ligand, UniProt P01270 32-115, looked up)", "chain": "SVSEIQLMHNLGKHLNSMERVEWLRKKLQDVHNFVALGAPLAPRDAGSQRPRKKEDNVLVESHEKSLGEADKADVNVLTKAKSQ", "notes": "mature; also called recombinant human PTH; purified human PTH"}},
  "key": {"[1]": {"target": "PTH receptor of UMR106 cell line (rat osteoblast-like osteosarcoma cell line) (rat) (UniProt P25961)", "experiment": "radioligand competition on UMR106 cells"}, "[2]": {"target": "PTH receptor of UMR106 cell line (rat osteoblast-like osteosarcoma cell line) (rat) (UniProt P25961)", "experiment": "radioligand competition on UMR106 cells (summary of Example 10)"}},
  "note": "These are yes or no findings as the source states them, for the method shown. Some results given as binding are weak or reduced against the parent protein; the word gives no strength.",
  "data": [
    {"binder": "B1", "values": [
      {"measurement": "binding", "setting": "[1]", "result": "binds"},
      {"measurement": "binding", "setting": "[2]", "result": "binds"}
    ]}
  ]
}
